108 sequences from PubChem BioAssay AID1347426 (Functional Genomics Laboratory (NCATS/FGL), 2020) can be followed below.

Among all 31,000 sequences or so, about 1,400 (4.5%) were called active.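 The calls were made as follows: active = median seed-adjusted z-score above 1 or below -1; inactive = the rest.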 The list shows a part of the results.

This experiment in a line: Novel Modifiers of Survival Motor Neuron (SMN) Protein: Gene Identification via Genome-wide siRNA Screen.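 Also: luminescence tracks full-length SMN protein made from the SMN2 reporter.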 The settings on record: HEK293T SMN2-luciferase reporter, siRNA knockdown, 72 h; actives lie on both sides. In outline:
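siRNA screen, 10418 genes ×3 siRNAs; 1 pmol/well, lipid reverse transfection into HEK293T SMN2-luc reporter line. 72 h, 37 °C, 5% CO2; ONE-Glo readout. Data: neg-ctrl normalized, log10, MAD; hit = MAD >1.0 or < -1.0.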
Consider CAUAGUCCUUGGACAUGUATT against TDRD9, for which the median seed-adjusted z-score was inactive: 0.0754.

Take GAUAGAAUGGUAAACAGCATT against PDHA2: the median seed-adjusted z-score is inactive: 0.118.

In the case of CGAUAGAACGAAUACCCUATT against ARID5B, the median seed-adjusted z-score was inactive: 0.

Turning to AAACGACAACUGUUAAAAATT against CCNA1, the median seed-adjusted z-score was inactive: -0.203.

In the case of GGACAUCGCCUUUCUCUAUTT against GJB5, the median seed-adjusted z-score is inactive: 0.338.

With GGAUCUUCACGGACAGCUATT against ADCYAP1, the median seed-adjusted z-score was inactive: 0.229.

Consider CUCACAUAAUCAUAAUAGATT against ZNF41, for which the median seed-adjusted z-score was inactive: 0.342.

For the sequence CUGUCCAUAGUGUCAUUAATT against GALNT1, the median seed-adjusted z-score is inactive: -0.164.

Take GGAAUAUCUGGAACCGUGATT against KLRF1: the median seed-adjusted z-score is inactive: 0.00941.

In the case of CGUUGUCACUGAGAUCACATT against AVIL, the median seed-adjusted z-score was inactive: -0.127.

As for CAUUCACUUUUACUGCUUUTT against PLOD1, the median seed-adjusted z-score is inactive: 0.481.

Consider GGCGGAUUUUUCAAACCCATT against LRRC52, for which the median seed-adjusted z-score was inactive: 0.118.

Regarding CCAUCUUCACUGACGAGCATT against GSC, the median seed-adjusted z-score is inactive: 0.17.

On to GAGCUGAAAGAGUACGCAATT against AP1B1, for which the median seed-adjusted z-score is inactive: -0.161.

In the case of GGCCUACAGAUGACAUACATT against THADA, the median seed-adjusted z-score is inactive: 0.00995.

For the sequence GAAAGGAUAUGGAUAUAAATT against PPIC, the median seed-adjusted z-score is inactive: 0.0824.

Regarding CAACCAUCGAGCAAAUGAATT against MAPK1, the median seed-adjusted z-score was inactive: 0.

Take GAGUUAUUCCGGGUACAUATT against LEF1: the median seed-adjusted z-score is inactive: 0.808.

Regarding CCUGAUCUCAAUACCUAUATT against CPN1, the median seed-adjusted z-score is inactive: 0.17.

For the sequence GCGUAGCUGUUAACAAGCUTT against MAP3K11, the median seed-adjusted z-score was inactive: 0.773.

On to GCAGUUUGCGUUUUGAAAGTT against NSUN5C, for which the median seed-adjusted z-score was inactive: -0.153.

Consider CGAGUUAGCAAGUUCAGCATT against CTRL, for which the median seed-adjusted z-score is inactive: 0.0758.

With GGAUCCUAAACUAUCCCAATT against HARS, the median seed-adjusted z-score was inactive: -0.722.

In the case of CGGCGGAGUUUAUAGAUAATT against BCKDHA, the median seed-adjusted z-score was inactive: -0.299.

Take AGAUAACAUGAGUAUUGUATT against PPM1B: the median seed-adjusted z-score is inactive: 0.

Take AUGUAAAAUUGGUAACUAATT against ADH1B: the median seed-adjusted z-score was inactive: 0.325.

Consider GGACAGGUGGAAUAACACUTT against GLS, for which the median seed-adjusted z-score was inactive: 0.

Consider GAAUGCCUUGAGAAGAGUATT against RFC5, for which the median seed-adjusted z-score is inactive: -0.644.

For GGUUCCCUGUGUUUUGAUUTT against FASTK, the median seed-adjusted z-score was inactive: 0.306.

In the case of GAUCCUACGCUAUGGAGUATT against ERG, the median seed-adjusted z-score is inactive: 0.629.

As to CCAUGACCUCGUUAGAGUATT against MRAS, the median seed-adjusted z-score was inactive: 0.032.

Turning to GCAUUGGUAAAAUUGCUAATT against AVIL, the median seed-adjusted z-score was inactive: -0.127.

As to GCAAGCCCGUUAAAUAAUUTT against FXYD3, the median seed-adjusted z-score is inactive: 0.254.

Take GCAUGAGCAUUUCAAGUAUTT against ENOSF1: the median seed-adjusted z-score was inactive: 0.496.

In the case of GGGUCCGACUAAUAAGACATT against MTR, the median seed-adjusted z-score was inactive: -0.0696.

On to UCAGCAAUCUGACUCUGAATT against LY9, for which the median seed-adjusted z-score was inactive: 0.228.

Turning to UGAUAUCGGCUACGUCAAATT against NAGK, the median seed-adjusted z-score is inactive: 0.446.

On to ACAAAUAAGAAGAUCAUCATT against AHSA2, for which the median seed-adjusted z-score is inactive: -0.881.

Turning to GCUGUGUGAUGUAGACCAATT against ZNF580, the median seed-adjusted z-score was inactive: 0.437.

As for GCUCAAUGCAGGUAUUCAATT against KLF8, the median seed-adjusted z-score was inactive: 0.0976.

As to CGCCUGAUAUUGAAGUAAATT against ARX, the median seed-adjusted z-score was inactive: 0.756.

Consider GCAUCCUACCCGUUCCAUATT against MSX2, for which the median seed-adjusted z-score was inactive: -0.406.

With CCAAUACUAACAUCUUCAATT against MCART1, the median seed-adjusted z-score was inactive: -0.605.

In the case of UGCGUUUUCUGAUAACUCATT against PTP4A2, the median seed-adjusted z-score was active: -1.45.

In the case of GGACCUGAACUACUGCACATT against DLL1, the median seed-adjusted z-score is inactive: 0.

For AGCUUGAAAAGUAAUGGAATT against SPINK7, the median seed-adjusted z-score is inactive: -0.409.

Regarding GUACAGCUCUUAUCGUUCATT against PPRC1, the median seed-adjusted z-score is inactive: 0.

For CGACAUAACUUACGACAAATT against KIF23, the median seed-adjusted z-score was inactive: -0.449.

Consider GGUGCAGAGGUCUACCAUATT against ENO2, for which the median seed-adjusted z-score is inactive: 0.418.

For the sequence GGCUGCCCAUGGUACUCAATT against IMP5, the median seed-adjusted z-score is inactive: 0.559.

Turning to GAGACGAGGGUGAUCGGAATT against RASL10B, the median seed-adjusted z-score was inactive: -0.377.

On to CAUUCGCUCUCAUACUGGATT against CTCF, for which the median seed-adjusted z-score is inactive: -0.0821.

As to ACAUCAUCCACUCACUAAATT against FADS1, the median seed-adjusted z-score is inactive: -0.905.

Take GGAGAAUGGAUAAGGCAAATT against BCL2A1: the median seed-adjusted z-score was inactive: 0.0557.

For the sequence CCCUUACUCUCCAAAAAUUTT against USF2, the median seed-adjusted z-score is inactive: 0.352.

As to GAUGGUGUAUGUACAAAGATT against ZNF543, the median seed-adjusted z-score is inactive: 0.

As to CAAUGUAUCCUCACCCUUATT against RAB30, the median seed-adjusted z-score is inactive: 0.395.

Regarding CAUCGGUAAUUAUCAUCAUTT against UBR3, the median seed-adjusted z-score was inactive: -0.894.

On to GAGACUCUUUGAAAGUAAATT against ZNF433, for which the median seed-adjusted z-score was inactive: 0.

Turning to GAGCAUGUAUGAAAACCGATT against MAGI1, the median seed-adjusted z-score is inactive: 0.

Take GGAGCUGGACAGCAGGUUATT against GPR84: the median seed-adjusted z-score is inactive: 0.285.

For GCCUGUUCCUGCUUCGAUATT against TRIM33, the median seed-adjusted z-score was inactive: 0.316.

Turning to ACAAAAAGGGCAUACAUUATT against S100A7A, the median seed-adjusted z-score was inactive: 0.212.

As to UGACCUCUAUGAGCAGUUUTT against ACTRT1, the median seed-adjusted z-score is inactive: 0.

In the case of GACCCAACAUAGAACUCCATT against KLRD1, the median seed-adjusted z-score is inactive: 0.876.

As for GGAGUUGAUUUUAUGAUUATT against RAB30, the median seed-adjusted z-score is inactive: 0.395.

As for GGAAAUAAGACUCAAGUUATT against GTF2A1, the median seed-adjusted z-score is inactive: -0.0209.

As for GGCUAUAGGUCUAGUGCUATT against RIMS1, the median seed-adjusted z-score is inactive: 0.

Regarding GAAAGAAUGCCGAAGAGUUTT against UBE2L6, the median seed-adjusted z-score was inactive: -0.455.

On to UCAUGACUACUUUCCCGAATT against NSFL1C, for which the median seed-adjusted z-score is inactive: -0.0899.

Regarding CUCUUCACGUCUGACCUGATT against HTR6, the median seed-adjusted z-score was inactive: -0.463.

As for GAACGUGGGCGACAAGAAATT against COMT, the median seed-adjusted z-score was inactive: -0.0808.

Take GCUCGGAGAAGAGAACAAATT against CHERP: the median seed-adjusted z-score is inactive: 0.155.

CUCCACAUGUAAUCCGUUATT against TAAR2: the median seed-adjusted z-score is inactive: 0.137.

For UCAAUGCCUCCUUAAUUUUTT against ZNF321, the median seed-adjusted z-score was inactive: -0.642.

On to GAGACACGCUUCACAUACATT against FKBP11, for which the median seed-adjusted z-score was inactive: -0.085.

For the sequence CGAGAAUUACGUUCCUACATT against RND3, the median seed-adjusted z-score is inactive: -0.132.

As to GGAUCAAGAGAAAUAUGGATT against ARHGAP12, the median seed-adjusted z-score is inactive: 0.525.

Consider GGCUUAUGGAGGACCCUAUTT against NCOR1, for which the median seed-adjusted z-score was inactive: 0.0767.

As to CCCAUAAUGUUGCUAGACUTT against ABCA13, the median seed-adjusted z-score is inactive: 0.238.

As for GACAGAAGAUUCAAUAAGATT against CLNS1A, the median seed-adjusted z-score is inactive: 0.232.

CAACAACACCUGUUGCUUUTT against RGS17: the median seed-adjusted z-score is inactive: -0.627.

For GAGUCCAACUGUCACCGGATT against HGFAC, the median seed-adjusted z-score is inactive: 0.021.

Take CCAAGCCUGCUUAUAGUAATT against GLRA2: the median seed-adjusted z-score was inactive: -0.927.

Turning to GGCGAUAGAUGGUAAUGUATT against ZEB1, the median seed-adjusted z-score is inactive: -0.163.

As for CAGUCAAGGUGAUCAACCATT against USP10, the median seed-adjusted z-score is inactive: 0.182.

With CCUCAUUGCAUACUACAAATT against BAZ1B, the median seed-adjusted z-score is inactive: 0.00593.

On to CUACUGAGAUUAAACGGGATT against GULP1, for which the median seed-adjusted z-score was inactive: -0.0337.

In the case of CUUCGAGUGUGACAUCUGUTT against ZNF581, the median seed-adjusted z-score is inactive: 0.486.

With CCUCAACUCUAAAUACUCATT against ZNF716, the median seed-adjusted z-score is inactive: 0.

GGAGUACAAUGUUCGUGUATT against CSNK2A2: the median seed-adjusted z-score is inactive: -0.155.

CAAUUGCUGUAGAUAGGUUTT against NPFFR2: the median seed-adjusted z-score was inactive: 0.0554.

In the case of GGCGAAAUCGGACAAUUGATT against NDUFS2, the median seed-adjusted z-score was inactive: -0.388.

In the case of GAACUAAGCACUACUCUAATT against DRP2, the median seed-adjusted z-score was inactive: -0.0555.

With AGGUGAACAUGAUUAAAGATT against BTF3L4, the median seed-adjusted z-score was inactive: 0.143.

With GGCAAGUCUAAUUCUAUUATT against RGS12, the median seed-adjusted z-score was inactive: 0.404.

On to GGGAUAAAAGAAUACUUCATT against MORF4, for which the median seed-adjusted z-score is inactive: 0.0121.

Consider GCAUUAGGAAGAAGCCCAATT against SLC16A3, for which the median seed-adjusted z-score is inactive: -0.353.

GGAAAUCAUUCGCAACAAATT against LRP4: the median seed-adjusted z-score is inactive: -0.00798.

In the case of GGUCCCGGUUUAUAUCUAUTT against HDAC8, the median seed-adjusted z-score was inactive: 0.835.

Take GCAACAAGUUCAUAGCCUATT against VPS11: the median seed-adjusted z-score was inactive: 0.

For GGCUAGUACGUGAAGAGUUTT against PKD2, the median seed-adjusted z-score was inactive: 0.219.

For GAUCUACCCUGCUCACGAUTT against ETHE1, the median seed-adjusted z-score was inactive: 0.

As for GGUGGAACUCUUCAACUUUTT against PHOSPHO2, the median seed-adjusted z-score was inactive: -0.247.

As to CUGCAUUUGCUACACCCUUTT against COX7C, the median seed-adjusted z-score was inactive: -0.461.

CGGCAUUACCUUUUCUACATT against LPCAT3: the median seed-adjusted z-score is inactive: -0.388.

With CUUUGGUUGAAGAAAGUAATT against TRMT6, the median seed-adjusted z-score is inactive: 0.069.

With GCAAGGAUAUGUACCAGAUTT against AGXT, the median seed-adjusted z-score is inactive: 0.017.
